At least one structure is not confirmed: it was looked up by name or label, or the drawing left a doubt.
Tested on: r(CUG)12-MBNL1 complex
Experiment: Inhibition of the r(CUG)12-MBNL1 complex measured by TR-FRET
Format: biochemical
Conditions: Table M; 80 nM RNA, 60 nM MBNL1-His6

Going from CN(C)CCCOc1ccc2nc(-c3ccc(-c4nc5ccc(OCCCN(C)C)cc5n4COP(=O)(O)O)cc3)n(COP(=O)(O)O)c2c1 [Compound 283, sodium(1,4-phenylenebis(6-(3-(dimethylamino)propoxy)-1H-benzo[d]imidazole-2,1-diyl))bis(methylene)bis(phosphate)] to CN(C)CCCOc1c(C(C)(C)C)cc(-c2nc3cc(-c4ccc5[nH]c(-c6cc(C(C)(C)C)c(OCCCN(C)C)c(C(C)(C)C)c6)nc5c4)ccc3[nH]2)cc1C(C)(C)C [Compound 375, 3,3′-((1H,1′H-[5,5′-bibenzo[d]imidazole]-2,2′-diylbis(2,6-di-tert-butyl-4,1-phenylene))bis(oxy))bis(N,N-dimethylpropan-1-amine)], the IC50 rises from 160 µM to greater than 200 µM. The first is the more potent here.

In the case of CN(CC(=O)NCCN1CCN(CCNC(=O)c2ccc3nc(-c4ccc(-c5nc6ccc(C(=O)NCCN7CCCCC7)cc6[nH]5)cc4)[nH]c3c2)CC1)CC(=O)NCCN1CCN(CCNC(=O)c2ccc3nc(-c4ccc(-c5nc6ccc(C(=O)NCCN7CCCCC7)cc6[nH]5)cc4)[nH]c3c2)CC1 [Compound 405], the IC50 is reported as 15.3 µM.
